Reference: patent publication US12535491B2, “Vaccine comprising protein-targeted (PT) extracellular DNA isolated from bacterial matrix” (priority 2018, dated 2026)

Test system: heat-resistant proteins of human plasma
Assay: LC/MS of heat-resistant proteins in plasma after exposure to proteinase K and boiling

B1: ITIH2_HUMAN (+1) (protein, UniProt P19823 55-702, looked up)
Inter-alpha-trypsin inhibitor …: SLPGESEEMMEEVDQVTLYSYKVQSTITSRMATTMIQSKVVNNSPQPQNVVFDVQIPKGAFISNFSMTVDGKTFRSSIKEKTVGRALYAQARAKGKTAGLVRSSALDMENFRTEVNVLPGAKVQFELHYQEVKWRKLGSYEHRIYLQPGRLAKHLEVDVWVIEPQGLRFLHVPDTFEGHFDGVPVISKGQQKAHVSFKPTVAQQRICPNCRETAVDGELVVLYDVKREEKAGELEVFNGYFVHFFAPDNLDPIPKNILFVIDVSGSMWGVKMKQTVEAMKTILDDLRAEDHFSVIDFNQNIRTWRNDLISATKTQVADAKRYIEKIQPSGGTNINEALLRAIFILNEANNLGLLDPNSVSLIILVSDGDPTVGELKLSKIQKNVKENIQDNISLFSLGMGFDVDYDFLKRLSNENHGIAQRIYGNQDTSSQLKKFYNQVSTPLLRNVQFNYPHTSVTDVTQNNFHNYFGGSEIVVAGKFDPAKLDQIESVITATSANTQLVLETLAQMDDLQDFLSKDKHADPDFTRKLWAYLTINQLLAERSLAPTAAAKRRITRSILQMSLDHHIVTPLTSLVIENEAGDERMLADAPPQDPSCCSGALYYGSKVVPDSTPSWANPSPTPVISMLAQGSQVLESTPPPHVMRVEND
N-plasma + pk (LC/MS, control plasma with added proteinase K, heated at 100° C. for 5 minutes): 24 | Effect (N-plasma + pk vs N-plasma) (change on adding proteinase K to normal plasma): ↑
